Paper PMC8961594
No constants are given. Whether binding was seen depends on the method and setting. Binding seen in cells or lysates may run through a third protein.

Sequences of proteins named here, by UniProt entry; tags and fusion partners are left off. A change or cut given only in a name is not applied to a line headed by its entry.
UniProt P55085: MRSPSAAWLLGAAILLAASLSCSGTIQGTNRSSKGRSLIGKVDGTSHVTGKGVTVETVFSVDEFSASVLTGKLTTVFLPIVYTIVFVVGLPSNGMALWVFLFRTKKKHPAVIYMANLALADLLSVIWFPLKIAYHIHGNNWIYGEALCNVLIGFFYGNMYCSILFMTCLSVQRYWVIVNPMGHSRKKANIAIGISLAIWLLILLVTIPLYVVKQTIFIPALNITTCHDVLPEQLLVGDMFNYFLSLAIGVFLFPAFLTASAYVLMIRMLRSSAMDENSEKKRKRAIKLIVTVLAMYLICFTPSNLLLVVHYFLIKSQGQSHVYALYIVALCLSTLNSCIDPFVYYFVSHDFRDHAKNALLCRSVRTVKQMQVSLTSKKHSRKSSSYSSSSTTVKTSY
UniProt P06733: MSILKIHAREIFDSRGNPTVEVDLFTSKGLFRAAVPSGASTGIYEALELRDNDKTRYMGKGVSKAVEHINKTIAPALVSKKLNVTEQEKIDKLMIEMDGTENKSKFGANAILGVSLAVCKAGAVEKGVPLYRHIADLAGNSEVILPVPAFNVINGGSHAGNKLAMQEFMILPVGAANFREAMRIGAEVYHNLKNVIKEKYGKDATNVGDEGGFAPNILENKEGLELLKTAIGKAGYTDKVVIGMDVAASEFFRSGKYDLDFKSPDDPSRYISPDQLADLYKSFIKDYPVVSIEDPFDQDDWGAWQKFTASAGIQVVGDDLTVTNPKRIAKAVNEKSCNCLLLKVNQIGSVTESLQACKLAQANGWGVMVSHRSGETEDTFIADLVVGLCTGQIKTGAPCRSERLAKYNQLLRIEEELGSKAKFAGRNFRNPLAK
UniProt Q96CW1: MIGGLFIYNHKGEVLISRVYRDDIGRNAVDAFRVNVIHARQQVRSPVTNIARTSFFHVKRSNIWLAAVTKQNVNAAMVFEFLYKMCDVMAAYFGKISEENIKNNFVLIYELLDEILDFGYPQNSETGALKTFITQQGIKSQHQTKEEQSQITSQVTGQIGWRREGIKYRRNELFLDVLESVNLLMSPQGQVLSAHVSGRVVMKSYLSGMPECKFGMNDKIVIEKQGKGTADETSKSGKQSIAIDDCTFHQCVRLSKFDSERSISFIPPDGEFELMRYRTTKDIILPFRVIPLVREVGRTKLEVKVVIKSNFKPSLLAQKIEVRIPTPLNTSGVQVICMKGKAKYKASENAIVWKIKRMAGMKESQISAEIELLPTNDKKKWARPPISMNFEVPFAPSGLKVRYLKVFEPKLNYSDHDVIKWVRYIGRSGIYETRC

Biological target: Protease-Activated Receptor 2 (PAR2) (human (endogenous in HUVEC)) (UniProt P55085)
Experiment: co-IP; HUVEC lysates (untreated or Plg-treated) precleared, incubated with antibody to PAR1 or PAR2 or control IgG 4 h at 4 °C, Protein A/G PLUS beads overnight at 4 °C; immunoblot for AP2µ or ENO-1

**Q.** How did the binding turn out when “Enolase-1 (ENO-1) (from UniProt P06733 1-434)” was run?
**A.** no binding

**Q.** How did the binding turn out when “clathrin adaptor protein AP2µ (from UniProt Q96CW1 1-435)” was run?
**A.** no binding
